Experimental data: the supplement of paper PMC6411743
± gives the standard deviation of the averaged measurements. The list shows a part of the results.

What was measured:
Assay in all cases: NP40-soluble protein abundance relative to vehicle (solubility fold change) (ratio); higher = more soluble protein in presence of GTP
[1] = biological target: T1, UniProt Q8IWR0 and related entries
T1 sequence (whole entry): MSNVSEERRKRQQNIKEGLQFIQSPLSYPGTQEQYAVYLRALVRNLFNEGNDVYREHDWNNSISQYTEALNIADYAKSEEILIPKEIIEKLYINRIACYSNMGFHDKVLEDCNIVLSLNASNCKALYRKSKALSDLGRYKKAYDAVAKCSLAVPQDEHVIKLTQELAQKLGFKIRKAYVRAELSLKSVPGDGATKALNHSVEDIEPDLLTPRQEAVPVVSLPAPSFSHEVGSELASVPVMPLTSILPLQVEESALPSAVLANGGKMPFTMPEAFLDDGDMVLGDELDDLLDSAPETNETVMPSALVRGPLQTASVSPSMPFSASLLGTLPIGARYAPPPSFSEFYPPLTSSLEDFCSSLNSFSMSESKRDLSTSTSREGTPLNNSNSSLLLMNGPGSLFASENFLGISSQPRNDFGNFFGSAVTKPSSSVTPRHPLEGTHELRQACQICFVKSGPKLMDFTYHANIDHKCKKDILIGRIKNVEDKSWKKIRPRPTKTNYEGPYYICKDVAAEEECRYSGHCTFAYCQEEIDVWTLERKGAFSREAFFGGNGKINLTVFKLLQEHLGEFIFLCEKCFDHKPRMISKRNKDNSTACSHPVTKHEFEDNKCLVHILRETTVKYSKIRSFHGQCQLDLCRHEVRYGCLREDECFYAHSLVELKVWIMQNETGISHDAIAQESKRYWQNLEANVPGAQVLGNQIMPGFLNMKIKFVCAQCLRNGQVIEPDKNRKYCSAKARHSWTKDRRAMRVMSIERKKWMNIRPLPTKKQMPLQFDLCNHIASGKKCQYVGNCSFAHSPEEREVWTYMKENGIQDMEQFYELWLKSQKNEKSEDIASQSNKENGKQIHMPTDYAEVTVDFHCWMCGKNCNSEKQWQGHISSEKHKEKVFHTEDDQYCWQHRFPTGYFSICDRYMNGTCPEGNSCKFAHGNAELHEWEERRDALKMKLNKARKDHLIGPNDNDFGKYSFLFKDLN
How it was run: (§1)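 Eight concentrations, 0.1 to 10 mM, were tested on Jurkat crude lysate for 10 min at room temperature and then 3 min at 37 °C, in three independent experiments. The lysate was solubilised with 0.8% NP40 and benzonase, ultracentrifuged, and the supernatant TMT-labelled for LC-MS/MS. Each value is the fold change against the detergent-processed vehicle in its own replicate, from vsn-normalised intensities.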

[2] = biological target: T2, UniProt Q8N0Z3
T2 sequence (whole entry): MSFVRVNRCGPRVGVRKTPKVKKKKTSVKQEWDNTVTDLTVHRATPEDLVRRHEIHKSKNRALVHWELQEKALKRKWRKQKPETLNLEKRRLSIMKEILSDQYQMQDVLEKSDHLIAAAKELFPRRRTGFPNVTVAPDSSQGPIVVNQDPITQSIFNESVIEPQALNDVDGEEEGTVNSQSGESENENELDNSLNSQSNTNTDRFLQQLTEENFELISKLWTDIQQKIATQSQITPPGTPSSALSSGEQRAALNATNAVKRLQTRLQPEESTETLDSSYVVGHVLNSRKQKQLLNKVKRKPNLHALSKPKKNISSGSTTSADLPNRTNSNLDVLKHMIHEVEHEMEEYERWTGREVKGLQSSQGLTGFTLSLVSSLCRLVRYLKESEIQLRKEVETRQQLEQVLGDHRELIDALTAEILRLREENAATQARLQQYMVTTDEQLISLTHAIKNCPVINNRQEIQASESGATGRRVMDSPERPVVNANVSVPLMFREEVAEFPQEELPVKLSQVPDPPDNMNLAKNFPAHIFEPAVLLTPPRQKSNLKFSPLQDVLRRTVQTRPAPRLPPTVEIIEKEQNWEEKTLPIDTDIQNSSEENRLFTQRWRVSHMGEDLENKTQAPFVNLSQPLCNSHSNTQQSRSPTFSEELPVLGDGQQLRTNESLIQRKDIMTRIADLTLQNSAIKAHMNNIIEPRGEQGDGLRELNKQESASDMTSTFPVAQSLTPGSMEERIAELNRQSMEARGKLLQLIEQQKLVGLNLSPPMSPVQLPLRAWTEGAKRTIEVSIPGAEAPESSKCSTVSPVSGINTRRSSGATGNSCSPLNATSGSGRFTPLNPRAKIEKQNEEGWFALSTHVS
How it was run: as §1

[3] = biological target: T3, UniProt Q8N1G0 and related entries
T3 sequence (whole entry): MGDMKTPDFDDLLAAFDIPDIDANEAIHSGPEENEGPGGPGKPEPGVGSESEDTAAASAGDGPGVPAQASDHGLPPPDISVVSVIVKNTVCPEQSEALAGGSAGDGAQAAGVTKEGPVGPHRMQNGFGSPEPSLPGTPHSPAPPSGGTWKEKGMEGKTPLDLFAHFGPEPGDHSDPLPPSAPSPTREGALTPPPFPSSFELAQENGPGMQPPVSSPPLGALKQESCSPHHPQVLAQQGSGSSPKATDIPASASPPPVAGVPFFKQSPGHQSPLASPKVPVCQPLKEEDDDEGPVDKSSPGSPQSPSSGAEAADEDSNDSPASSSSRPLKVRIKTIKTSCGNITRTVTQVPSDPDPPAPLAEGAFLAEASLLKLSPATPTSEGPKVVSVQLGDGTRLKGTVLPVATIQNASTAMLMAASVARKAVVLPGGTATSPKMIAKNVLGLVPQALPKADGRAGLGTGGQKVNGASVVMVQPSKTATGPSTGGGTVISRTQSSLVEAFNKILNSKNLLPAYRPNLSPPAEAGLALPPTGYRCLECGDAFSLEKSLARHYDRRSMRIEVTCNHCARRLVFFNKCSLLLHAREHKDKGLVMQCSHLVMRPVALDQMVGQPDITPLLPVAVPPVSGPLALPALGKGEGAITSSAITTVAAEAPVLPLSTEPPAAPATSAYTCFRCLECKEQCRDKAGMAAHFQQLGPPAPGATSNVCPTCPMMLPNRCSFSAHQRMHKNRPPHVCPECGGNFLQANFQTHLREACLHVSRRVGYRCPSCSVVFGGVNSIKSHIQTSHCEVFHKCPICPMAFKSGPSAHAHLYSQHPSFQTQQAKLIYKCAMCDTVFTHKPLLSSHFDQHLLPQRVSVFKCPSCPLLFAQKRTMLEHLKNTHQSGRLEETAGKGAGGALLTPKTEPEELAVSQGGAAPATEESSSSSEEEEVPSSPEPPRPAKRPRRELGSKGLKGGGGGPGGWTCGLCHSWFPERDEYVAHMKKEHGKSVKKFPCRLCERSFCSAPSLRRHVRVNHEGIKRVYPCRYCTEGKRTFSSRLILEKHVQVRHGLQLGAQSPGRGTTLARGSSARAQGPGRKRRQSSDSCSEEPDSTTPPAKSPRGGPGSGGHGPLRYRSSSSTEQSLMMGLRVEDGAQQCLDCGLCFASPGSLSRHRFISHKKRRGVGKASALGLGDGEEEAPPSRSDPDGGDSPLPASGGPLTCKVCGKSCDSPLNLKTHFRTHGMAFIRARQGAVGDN
How it was run: as §1

[4] = biological target: T4, UniProt Q8N4Q1 and related entries
T4 sequence (whole entry): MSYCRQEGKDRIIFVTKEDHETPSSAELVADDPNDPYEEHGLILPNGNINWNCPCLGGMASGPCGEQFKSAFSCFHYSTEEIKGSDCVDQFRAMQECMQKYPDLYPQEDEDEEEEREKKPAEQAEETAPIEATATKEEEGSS
How it was run: as §1

[5] = biological target: T5, UniProt Q8N573 and related entries
T5 sequence (whole entry): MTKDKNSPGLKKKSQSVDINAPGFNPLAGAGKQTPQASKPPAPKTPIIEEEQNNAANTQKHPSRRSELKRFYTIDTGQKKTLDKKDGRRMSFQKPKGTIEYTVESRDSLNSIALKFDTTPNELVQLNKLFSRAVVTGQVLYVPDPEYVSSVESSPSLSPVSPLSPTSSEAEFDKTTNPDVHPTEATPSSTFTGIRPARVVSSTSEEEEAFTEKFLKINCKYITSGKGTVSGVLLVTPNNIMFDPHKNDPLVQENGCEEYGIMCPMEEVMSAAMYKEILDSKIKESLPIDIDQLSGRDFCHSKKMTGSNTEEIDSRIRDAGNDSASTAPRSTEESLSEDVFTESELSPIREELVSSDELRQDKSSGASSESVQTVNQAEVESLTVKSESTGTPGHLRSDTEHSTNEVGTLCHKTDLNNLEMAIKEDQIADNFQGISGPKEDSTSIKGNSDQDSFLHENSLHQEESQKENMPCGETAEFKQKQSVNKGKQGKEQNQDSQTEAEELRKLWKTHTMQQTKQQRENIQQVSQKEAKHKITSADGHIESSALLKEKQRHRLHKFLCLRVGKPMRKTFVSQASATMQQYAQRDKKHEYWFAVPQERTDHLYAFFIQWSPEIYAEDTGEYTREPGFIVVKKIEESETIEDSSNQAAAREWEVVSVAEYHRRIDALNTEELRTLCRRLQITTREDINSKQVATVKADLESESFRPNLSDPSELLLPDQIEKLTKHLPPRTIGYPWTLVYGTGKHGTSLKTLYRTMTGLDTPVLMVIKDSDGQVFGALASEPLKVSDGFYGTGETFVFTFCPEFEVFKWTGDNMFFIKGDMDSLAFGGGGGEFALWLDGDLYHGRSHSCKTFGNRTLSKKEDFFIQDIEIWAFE
How it was run: as §1

[6] = biological target: T6, UniProt Q8N5A5 and related entries
T6 sequence (whole entry): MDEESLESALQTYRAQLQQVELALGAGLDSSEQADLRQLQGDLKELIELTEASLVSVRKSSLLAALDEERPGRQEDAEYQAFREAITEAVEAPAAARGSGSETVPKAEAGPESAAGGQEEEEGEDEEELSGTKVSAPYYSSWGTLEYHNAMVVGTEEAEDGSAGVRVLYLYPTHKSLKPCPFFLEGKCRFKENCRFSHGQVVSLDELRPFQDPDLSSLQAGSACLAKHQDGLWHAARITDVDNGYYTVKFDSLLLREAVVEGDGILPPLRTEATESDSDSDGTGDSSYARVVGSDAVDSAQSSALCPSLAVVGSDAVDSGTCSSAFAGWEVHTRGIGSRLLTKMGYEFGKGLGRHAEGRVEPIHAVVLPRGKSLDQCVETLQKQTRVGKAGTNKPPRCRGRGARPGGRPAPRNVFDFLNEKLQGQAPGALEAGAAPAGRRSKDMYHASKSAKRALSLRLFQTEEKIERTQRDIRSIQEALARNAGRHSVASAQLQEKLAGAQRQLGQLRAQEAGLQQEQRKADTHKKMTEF
How it was run: as §1

Nc1nc2c(ncn2[C@@H]2O[C@H](COP(=O)(O)OP(=O)(O)OP(=O)(O)O)[C@@H](O)[C@H]2O)c(=O)[nH]1 [guanosine triphosphate]
NP40-soluble protein abundance ([1]; concentration: 4mM): 1.16 ± 0.076 | NP40-soluble protein abundance ([1]; concentration: 6mM): 1.13 ± 0.039 | NP40-soluble protein abundance ([1]; concentration: 8mM): 1.14 ± 0.064 | NP40-soluble protein abundance ([1]; concentration: 10mM): 1.12 ± 0.028 | NP40-soluble protein abundance ([2]; concentration: 0.1mM): 1.02 ± 0.077 | NP40-soluble protein abundance ([2]; concentration: 0.5mM): 0.957 ± 0.066 | NP40-soluble protein abundance ([2]; concentration: 1mM): 0.992 ± 0.038 | NP40-soluble protein abundance ([2]; concentration: 2mM): 0.979 ± 0.04 | NP40-soluble protein abundance ([2]; concentration: 4mM): 0.932 ± 0.059 | NP40-soluble protein abundance ([2]; concentration: 6mM): 0.994 ± 0.1 | NP40-soluble protein abundance ([2]; concentration: 8mM): 0.954 ± 0.075 | NP40-soluble protein abundance ([2]; concentration: 10mM): 0.962 ± 0.026 | NP40-soluble protein abundance ([3]; concentration: 0.1mM): 1.06 ± 0.1 | NP40-soluble protein abundance ([3]; concentration: 0.5mM): 1.07 ± 0.095 | NP40-soluble protein abundance ([3]; concentration: 1mM): 1.16 ± 0.2 | NP40-soluble protein abundance ([3]; concentration: 2mM): 1.13 ± 0.16 | NP40-soluble protein abundance ([3]; concentration: 4mM): 1.16 ± 0.31 | NP40-soluble protein abundance ([3]; concentration: 6mM): 1.13 ± 0.2 | NP40-soluble protein abundance ([3]; concentration: 8mM): 1.25 ± 0.27 | NP40-soluble protein abundance ([3]; concentration: 10mM): 1.15 ± 0.28 | NP40-soluble protein abundance ([4]; concentration: 0.1mM): 0.911 ± 0.013 | NP40-soluble protein abundance ([4]; concentration: 0.5mM): 0.975 ± 0.083 | NP40-soluble protein abundance ([4]; concentration: 1mM): 1.065 ± 0.0097 | NP40-soluble protein abundance ([4]; concentration: 2mM): 1.01 ± 0.08 | NP40-soluble protein abundance ([4]; concentration: 4mM): 0.991 ± 0.078 | NP40-soluble protein abundance ([4]; concentration: 6mM): 1.02 ± 0.072 | NP40-soluble protein abundance ([4]; concentration: 8mM): 1.08 ± 0.065 | NP40-soluble protein abundance ([4]; concentration: 10mM): 1.1 ± 0.077 | NP40-soluble protein abundance ([5]; concentration: 0.1mM): 0.964 ± 0.12 | NP40-soluble protein abundance ([5]; concentration: 0.5mM): 0.904 ± 0.1 | NP40-soluble protein abundance ([5]; concentration: 1mM): 0.949 ± 0.13 | NP40-soluble protein abundance ([5]; concentration: 2mM): 0.935 ± 0.12 | NP40-soluble protein abundance ([5]; concentration: 4mM): 0.919 ± 0.17 | NP40-soluble protein abundance ([5]; concentration: 6mM): 0.887 ± 0.19 | NP40-soluble protein abundance ([5]; concentration: 8mM): 0.844 ± 0.13 | NP40-soluble protein abundance ([5]; concentration: 10mM): 0.906 ± 0.16 | NP40-soluble protein abundance ([6]; concentration: 0.1mM): 1.1 ± 0.064 | NP40-soluble protein abundance ([6]; concentration: 0.5mM): 1.07 ± 0.076 | NP40-soluble protein abundance ([6]; concentration: 1mM): 1.07 ± 0.068 | NP40-soluble protein abundance ([6]; concentration: 2mM): 1.12 ± 0.039 | NP40-soluble protein abundance ([6]; concentration: 4mM): 1.11 ± 0.081 | NP40-soluble protein abundance ([6]; concentration: 6mM): 1.08 ± 0.065
